Test results from publication PMC10503807.
Results are given in words; binding and its absence hold for the method and conditions named. Binding seen in cells or lysates may run through a third protein. Some results given as binding are weak or reduced against the parent protein; the word gives no strength.

By UniProt entry, the sequences of proteins in these tests, tags left out. Residues count along the entry.
UniProt Q91WP6, residues 21-418: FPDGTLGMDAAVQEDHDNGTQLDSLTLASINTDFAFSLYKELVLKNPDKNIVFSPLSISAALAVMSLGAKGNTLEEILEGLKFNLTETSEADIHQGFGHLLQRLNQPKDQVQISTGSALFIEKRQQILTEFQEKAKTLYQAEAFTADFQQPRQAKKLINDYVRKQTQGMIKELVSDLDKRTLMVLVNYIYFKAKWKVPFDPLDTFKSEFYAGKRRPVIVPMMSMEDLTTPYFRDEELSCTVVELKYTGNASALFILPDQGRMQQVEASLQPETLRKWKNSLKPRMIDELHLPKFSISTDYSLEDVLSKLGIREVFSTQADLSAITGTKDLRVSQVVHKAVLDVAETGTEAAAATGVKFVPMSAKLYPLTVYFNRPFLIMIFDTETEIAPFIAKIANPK

T1: Praja1 (PJA1), mouse (mouse (endogenous in hippocampus)) (UniProt O55176)
T1 sequence: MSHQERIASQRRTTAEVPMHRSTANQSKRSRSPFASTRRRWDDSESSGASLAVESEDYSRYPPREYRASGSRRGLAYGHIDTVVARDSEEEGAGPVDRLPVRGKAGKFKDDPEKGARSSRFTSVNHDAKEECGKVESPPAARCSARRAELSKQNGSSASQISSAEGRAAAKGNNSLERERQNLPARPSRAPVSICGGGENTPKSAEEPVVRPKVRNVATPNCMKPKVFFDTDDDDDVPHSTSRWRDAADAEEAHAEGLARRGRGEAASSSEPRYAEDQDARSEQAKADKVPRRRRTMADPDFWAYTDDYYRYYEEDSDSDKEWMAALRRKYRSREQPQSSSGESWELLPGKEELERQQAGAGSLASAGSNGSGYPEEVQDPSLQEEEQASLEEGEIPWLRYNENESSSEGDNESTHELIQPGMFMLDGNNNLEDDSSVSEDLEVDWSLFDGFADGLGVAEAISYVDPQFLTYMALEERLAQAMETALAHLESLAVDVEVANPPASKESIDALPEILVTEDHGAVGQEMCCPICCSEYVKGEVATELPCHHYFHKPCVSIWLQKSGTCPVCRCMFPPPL

T2: Praja1 (PJA1), human (human (endogenous in normal human astrocytes)) (UniProt Q8NG27)
T2 sequence: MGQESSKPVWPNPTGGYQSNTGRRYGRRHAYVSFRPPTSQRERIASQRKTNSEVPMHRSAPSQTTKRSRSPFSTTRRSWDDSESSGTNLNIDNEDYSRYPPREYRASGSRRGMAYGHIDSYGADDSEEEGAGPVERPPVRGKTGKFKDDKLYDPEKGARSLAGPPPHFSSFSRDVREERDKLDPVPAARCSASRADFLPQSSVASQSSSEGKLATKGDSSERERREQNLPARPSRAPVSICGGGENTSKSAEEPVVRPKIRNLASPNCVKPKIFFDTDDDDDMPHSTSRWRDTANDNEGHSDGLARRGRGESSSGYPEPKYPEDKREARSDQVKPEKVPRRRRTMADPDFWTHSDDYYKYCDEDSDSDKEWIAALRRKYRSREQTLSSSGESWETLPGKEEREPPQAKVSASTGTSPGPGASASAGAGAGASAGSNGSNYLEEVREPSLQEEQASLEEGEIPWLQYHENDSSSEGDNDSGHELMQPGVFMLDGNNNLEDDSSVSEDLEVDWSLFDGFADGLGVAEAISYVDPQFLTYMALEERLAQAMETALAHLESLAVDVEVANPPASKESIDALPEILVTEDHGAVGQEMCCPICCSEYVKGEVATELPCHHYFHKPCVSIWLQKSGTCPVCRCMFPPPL


Assays:
[1] = biological target: T1, Praja1 (PJA1), mouse (mouse (endogenous in hippocampus)); test: co-IP; mouse sample lysed in NP-40 lysis buffer, antibody or homologous IgG overnight at 4°C, protein A/G magnetic agarose beads, Western blot
[2] = biological target: T2, Praja1 (PJA1), human (human (endogenous in normal human astrocytes)); test: co-IP; normal human astrocytes (NHAs) lysed in NP-40 lysis buffer, antibody or homologous IgG overnight at 4°C, protein A/G magnetic agarose beads, Western blot

| binding [1] | binding [2] | Molecule |
| --- | --- | --- |
| binds | – | Serine peptidase inhibitor clade A member 3N (Serpina3n) (from UniProt Q91WP6 21-418) |
| – | binds | α1-antichymotrypsin (AACT, the human ortholog of murine Serpina3n) (protein, UniProt P01011 24-423) HPNSPLDEENLTQENQDRGTHVDLGLASANVDFAFSLYKQLVLKAPDKNVIFSPLSISTALAFLSLGAHNTTLTEILKGLKFNLTETSEAEIHQSFQHLLRTLNQSSDELQLSMGNAMFVKEQLSLLDRFTEDAKRLYGSEAFATDFQDSAAAKKLINDYVKNGTRGKITDLIKDLDSQTMMVLVNYIFFKAKWEMPFDPQDTHQSRFYLSKKKWVMVPMMSLHHLTIPYFRDEELSCTVVELKYTGNASALFILPDQDKMEEVEAMLLPETLKRWRDSLEFREIGELYLPKFSISRDYNLNDILLQLGIEEAFTSKADLSGITGARNLAVSQVVHKAVLDVFEEGTEASAATAVKITLLSALVETRTIVRFNRPFLMIIVPTDTQNIFFMSKVTNPKQA |
